For some of these results: Not every detail of the peptide structures is certain; ends, links or a residue may be inferred. For some of these results: For at least one compound, name, drawing or mass did not settle the structure. Peptide text beside a SMILES is read from it. * marks the point of attachment. FITC = O=C1OC2(c3ccc(O)cc3Oc3cc(O)ccc32)c2ccc(NC(=S)*)cc21; Biotin = O=C1N[C@H]2[C@H](CS[C@H]2CCCCC(=O)*)N1; Ahx = NCCCCCC(=O)O
How the values were obtained:
CBP80/CBP20 complex = target: T1, CBP80/CBP20 complex (Homo sapiens, UniProt Q09161); test: fluorescence polarization based competition assay (displacement of FITC-labeled PGC1β peptide); type: binding; details: 1 μM FITC-labeled PGC1β (FITC-Ahx-AMDFDSLLKEAQQSLH-NH2), 30 μM CBP80/CBP20 complex, HEPES buffer pH 7.5
T1 sequence (Q09161 1-790): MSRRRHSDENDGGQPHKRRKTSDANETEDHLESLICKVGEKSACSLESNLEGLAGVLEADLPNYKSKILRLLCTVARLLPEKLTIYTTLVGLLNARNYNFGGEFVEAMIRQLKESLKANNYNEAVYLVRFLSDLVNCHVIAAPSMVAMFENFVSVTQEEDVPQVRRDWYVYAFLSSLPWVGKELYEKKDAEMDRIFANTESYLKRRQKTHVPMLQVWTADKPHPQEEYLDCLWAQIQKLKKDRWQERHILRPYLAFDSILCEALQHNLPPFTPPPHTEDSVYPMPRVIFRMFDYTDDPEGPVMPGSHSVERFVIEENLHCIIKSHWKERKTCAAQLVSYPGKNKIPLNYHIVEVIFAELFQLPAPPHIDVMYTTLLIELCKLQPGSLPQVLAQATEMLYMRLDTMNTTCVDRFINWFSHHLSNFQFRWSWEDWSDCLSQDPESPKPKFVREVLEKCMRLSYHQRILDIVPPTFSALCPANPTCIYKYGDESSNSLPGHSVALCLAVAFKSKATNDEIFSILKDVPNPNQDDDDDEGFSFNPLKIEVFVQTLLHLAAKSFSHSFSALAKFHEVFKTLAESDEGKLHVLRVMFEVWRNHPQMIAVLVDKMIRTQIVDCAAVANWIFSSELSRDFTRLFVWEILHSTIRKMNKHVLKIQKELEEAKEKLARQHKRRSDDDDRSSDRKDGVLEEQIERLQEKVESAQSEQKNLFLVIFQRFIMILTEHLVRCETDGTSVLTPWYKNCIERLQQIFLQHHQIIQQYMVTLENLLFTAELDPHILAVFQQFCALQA
T1 sequence (P52298 1-156 partner): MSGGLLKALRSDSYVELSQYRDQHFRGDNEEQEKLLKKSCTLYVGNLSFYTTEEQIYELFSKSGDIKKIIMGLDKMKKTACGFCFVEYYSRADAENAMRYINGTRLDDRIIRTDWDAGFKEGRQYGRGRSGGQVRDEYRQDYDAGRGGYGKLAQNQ
Method: The ability of α-MOrPHs to disrupt the PGC1β-CBP80 interaction will be assessed and quantified via a fluorescence polarization-based competition assay, in which disruption of the complex formed between a fluorescein-conjugated PGC1β peptide and CBP80 is measured upon adding increasing concentrations of each inhibitory α-MOrPH (FIG. 5A). […] Initially, the length of the linker in the inhibitory α-MOrPH will be optimized for maximal activity toward disrupting the PGC1β-CBP80 interaction (e.g. using SP1-3, FIG. 4).
The relative activity of the PGC1β mimics toward disrupting the interaction between CBC and the fluorescein-conjugated PGC1β-derived peptide was measured in a competition assay. […] From the resulting dose-dependent inhibition curves, the in vitro CBC inhibitory activity of the PGC1β mimic compound is measured based on their respective half-maximal inhibitory concentration (IC50) (FIG. 5B). Using this assay, various PGC1β mimics were evaluated for their relative ability to target CBC and disrupt its binding interaction with PGC1β. […]
IC50 values were determined by adapting the fluorescence polarization assay described above to a competition format. […] Half-maximal inhibitory concentration (IC50) values were calculated from the resulting inhibition curves as given by dose-dependent decrease in the fluorescence polarization signal. […]

Structure (SMILES) | IC50 (CBP80/CBP20 complex) [µM] | IC50 (CBP80/CBP20 complex; listed as Biot-PGC1β peptide) [µM] | nuclear localization (overlap of fluorescein with DAPI staining) (HeLa cells)
CSCC[C@H](NC(=O)[C@H](C)NC(=O)CNC(=O)CNC(=O)[C@H](CO)NC(=O)CCCCCNC(=O)CCCC[C@@H]1SC[C@@H]2NC(=O)N[C@@H]21)C(=O)N[C@@H](CC(=O)O)C(=O)N[C@@H](Cc1ccccc1)C(=O)N[C@@H](CC(=O)O)C(=O)N[C@@H](CO)C(=O)N[C@@H](CC(C)C)C(=O)N[C@@H](CC(C)C)C(=O)N[C@@H](CCCCN)C(=O)N[C@@H](CCC(=O)O)C(=O)N[C@@H](C)C(=O)N[C@@H](CCC(N)=O)C(=O)N[C@@H](CCC(N)=O)C(=O)N[C@@H](CO)C(=O)N[C@@H](CC(C)C)C(=O)N[C@@H](Cc1c[nH]cn1)C(N)=O [Biot-PGC1β, Biot-Ahx-SGG-AMDFDSLLKEAQQSLH-NH2] ({Biotin-Ahx}-SGGAMDFDSLLKEAQQSLH-NH2) | 35 ± 2 | ~35 | –
N=C(N)NCCC[C@H](NC(=O)[C@H](CCCNC(=N)N)NC(=O)[C@H](CCCNC(=N)N)NC(=O)[C@H](CCCNC(=N)N)NC(=O)[C@H](CCCNC(=N)N)NC(=O)[C@H](CCCNC(=N)N)NC(=O)[C@H](CCCNC(=N)N)NC(=O)[C@H](CCCNC(=N)N)NC(=O)CCCCCNC(=S)Nc1ccc2c(c1)C(=O)OC21c2ccc(O)cc2Oc2cc(O)ccc21)C(N)=O [FITC-Ahx-RRRRRRRR-NH2, reference compound] | – | – | negligible distribution into the nuclei
CSCC[C@H](NC(=O)CCCCCNC(=S)Nc1ccc2c(c1)C(=O)OC21c2ccc(O)cc2Oc2cc(O)ccc21)C(=O)N[C@@H](CC(=O)O)C(=O)N[C@@H](Cc1ccccc1)C(=O)N[C@@H](CC(=O)O)C(=O)N[C@@H](CO)C(=O)N[C@@H](CC(C)C)C(=O)N[C@@H](CC(C)C)C(=O)N[C@@H](CCCCN)C(=O)N[C@@H](CCC(=O)O)C(=O)N[C@@H](C)C(=O)N[C@@H](CCC(N)=O)C(=O)N[C@@H](CCC(N)=O)C(=O)N[C@@H](CO)C(=O)N[C@@H](CCCNC(=N)N)C(=O)N[C@@H](CCCNC(=N)N)C(=O)N[C@@H](CCCNC(=N)N)C(=O)N[C@@H](CCCNC(=N)N)C(=O)N[C@@H](CCCNC(=N)N)C(=O)N[C@@H](CCCNC(=N)N)C(=O)N[C@@H](CCCNC(=N)N)C(=O)N[C@@H](CCCNC(=N)N)C(N)=O ({FITC-Ahx}-MDFDSLLKEAQQSRRRRRRRR-NH2) | – | – | localized in the nuclei
